# According to PubChem BioAssay AID540276 (National Center for Advancing Translational Sciences (NCATS), 2011):
# In all, about 300,000 compounds went through this assay and about 5,400 (1.8%) were called active. The shares of active, inactive and inconclusive entries below differ from those in the screen. Calls follow the shape of the full dose curve; tested in HEK293 cells. Potencies beside an inconclusive call are fits to weak or partial responses and may not hold up.
# Assay: qHTS for inhibitors of binding or entry into cells for Marburg Virus
# Conditions: Marburg virus pseudotyped entry inhibition, cell reporter; activity change, negative = inhibition: at 37.8 µM (top of the series) unless noted
# % is scaled to controls: 0 for no effect and ±100 for the full control effect; potency is read from the fitted curve at half-maximal effect.
Structure (SMILES),Potency,"activity change, negative = inhibition"
Cc1cc2nn(-c3cccc4ccccc34)nc2cc1NC(=O)c1cccs1,"inconclusive: 5.8 µM [inhibitor, partial curve, poor fit]",–
O=C(OC1CCCCC1)c1cc2ccccc2oc1=O,"inconclusive: 11.2 µM [activator, partial curve, poor fit]",–
Cc1nn(Cc2ccccc2)c2c1C(c1cccnc1)C(C#N)=C(N)O2 (stereo unspecified),–,inactive: -0.532%
CC(O)/C=C/C1=[N+](C)CCCC1 (stereo unspecified),"inconclusive: 29.1 µM [activator, single point]",–
CCn1c(C(=O)Nc2cc(Cl)ccc2C)cc2sc(Cl)cc21,"inconclusive: 0.562 µM [inhibitor, full curve, poor fit]",–
CCN1CCN(CCCNC(=O)c2csc3c2CCCCC3)CC1,"inconclusive: 0.0326 µM [inhibitor, full curve, poor fit]",–
CCOC(=O)COc1c(/C=N\O)cc(Cl)cc1OC,"inconclusive: 4.47 µM [activator, single point]",–
CCOC(=O)c1c(NC(=O)/C=C/C(=O)O)sc(C)c1-c1ccc(C)c(C)c1,"inconclusive: 20.6 µM [inhibitor, single point]",–
CCOc1ccc(CCNC(=O)Cn2ncn3c(cc4ccccc43)c2=O)cc1OCC,–,inactive: 16.8% [at 46.1 µM]
CC(Cc1ccccc1Sc1ccccc1)N(C)C (stereo unspecified),"inconclusive: 0.251 µM [inhibitor, full curve, poor fit]",–
C(=N\n1cnnc1)/c1ccc(OCc2cccc3ccccc23)cc1,"inconclusive: 7.08 µM [inhibitor, partial curve, poor fit]",–
CC(=O)OC[C@H]1O[C@H](C#Cc2ccc(C)cc2C)C=C[C@@H]1OC(C)=O,–,inactive: -2.26% [at 14.2 µM]
COc1ccc(CCNC(=O)CCc2c(C)c3cc4c(C)c(C)oc4cc3oc2=O)cc1,"inconclusive: 3.55 µM [activator, single point]",–
Cc1ccc(NC2=Nc3ccccc3CS2)cc1,active: 10 µM,–
N/C(=N\OC(=O)CCC1CCCC1)c1cccnc1,"inconclusive: 35.5 µM [activator, single point]",–
Cc1ccc(-c2nc3ccc(Cl)cn3c2Nc2ccc3c(c2)OCCO3)s1,"inconclusive: 25.1 µM [activator, partial curve, poor fit]",–
NS(=O)(=O)c1cccc(NC(=O)CCSc2ccccc2Cl)c1,"inconclusive: 12.6 µM [activator, partial curve]",–
Cc1cc(/C=C(\C#N)C(=O)NCc2ccco2)c(C)n1C1CCCC1,–,inactive: 6.31%
CCOc1ccccc1N(C)C(=O)c1ccc2c(=O)n3c(nc2c1)CCCCC3,"inconclusive: 1.12 µM [inhibitor, full curve, poor fit]",–
Clc1cccc(-c2nc(NCc3cccnc3)c3ccccc3n2)c1,–,inactive: -18.2%
CCC(C)(C)NC(=O)C(c1cccc(OC)c1OC)N(Cc1ccccc1)C(=O)CCC(=O)Nc1cc(C)on1 (stereo unspecified),"inconclusive: 23.1 µM [inhibitor, partial curve, poor fit]",–

# Entries of single compounds, quoted from the list.
# Cc1ccc(-c2nc3ccc(Cl)cn3c2Nc2ccc3c(c2)OCCO3)s1 is listed with Potency: inconclusive: 25.1 µM [activator, partial curve, poor fit]
# COc1ccc(CCNC(=O)CCc2c(C)c3cc4c(C)c(C)oc4cc3oc2=O)cc1 is listed with Potency: inconclusive: 3.55 µM [activator, single point]
# O=C(OC1CCCCC1)c1cc2ccccc2oc1=O is listed with Potency: inconclusive: 11.2 µM [activator, partial curve, poor fit]

# Next part.

Structure (SMILES),Potency,"activity change, negative = inhibition"
CCN(c1cccc2ccccc12)S(=O)(=O)c1ccc(Cl)nc1,"inconclusive: 29.1 µM [inhibitor, single point]",–
CCCN1CC(C)C(OC(C)=O)(c2ccccc2)CC1C (stereo unspecified),"inconclusive: 5.62 µM [inhibitor, full curve]",–
CCNc1nc(NCC)nc(N/N=C/c2ccc(Br)cc2)n1,"inconclusive: 35.5 µM [inhibitor, single point]",–
Cc1c(Cl)c(-c2n[nH]c(=S)n2-c2ccc(F)cc2)nn1C,"inconclusive: 1.12 µM [activator, full curve, poor fit]",–
CCOc1nc(-c2ccc(C)cc2)ccc1-c1noc(-c2ccccc2F)n1,"inconclusive: 0.891 µM [activator, full curve, poor fit]",–
O=c1c2ccccc2nc(/C=C/c2ccc([N+](=O)[O-])o2)n1-c1ccc(O)cc1,active: 3.16 µM,–
CC1CCCCN1S(=O)(=O)c1ccc(S(=O)(=O)N(CC(=O)Nc2ccccc2)Cc2cccs2)cc1 (stereo unspecified),"inconclusive: 0.206 µM [inhibitor, partial curve]",–
O=C(Nc1ccnn1C1CCN(Cc2cccc(OCCO)c2)CC1)C1CC1,"inconclusive: 12.6 µM [activator, single point]",–
Cc1cc(=O)[nH]c(N/N=C/c2ccccc2C(F)(F)F)n1,–,inactive: 20.9% [at 46.1 µM]
Cc1ccc(S(=O)(=O)CCC(=O)Nc2nnc(CC(C)C)s2)cc1,"inconclusive: 35.5 µM [inhibitor, single point]",–
CCOC(=O)C(NS(=O)(=O)c1ccccc1)(C(F)(F)F)P(=O)(OCC(C)C)OCC(C)C (stereo unspecified),"inconclusive: 11.2 µM [inhibitor, partial curve, poor fit]",–
S=c1[nH]cnc2scc(-c3ccc(Br)cc3)c12,"inconclusive: 15.8 µM [inhibitor, partial curve, poor fit]",–
CCN(CC)CCOC(=O)c1ccc(N/C=C(/C#N)c2nc(-c3ccc4c(c3)OCO4)cs2)cc1,"inconclusive: 25.1 µM [inhibitor, single point]",–
CC(C)COc1ccc(C(=O)N2CCN(CCc3ccccn3)CC2)cc1,–,inactive: 14.3% [at 46.1 µM]
CCc1ccc(NC(=O)C(=O)NCC2CCCN2S(=O)(=O)c2ccccc2)cc1 (stereo unspecified),"inconclusive: 12.6 µM [inhibitor, partial curve, poor fit]",–
CCn1cc(C(=O)NCCN(C)CCc2ccccc2)c(=O)c2cc(S(=O)(=O)N(C)C)ccc21,"inconclusive: 0.651 µM [inhibitor, single point]",–
O=C(CC1C(=O)N(c2ccccc2)C(=S)N1c1ccccc1)c1ccc(Br)cc1 (stereo unspecified),"inconclusive: 6.31 µM [activator, single point]",–
Cc1ccc(NC(=O)C(OC(=O)c2ccccc2Cl)c2ccccc2)cc1Cl (stereo unspecified),"inconclusive: 7.31 µM [inhibitor, partial curve, poor fit]",–
COc1cc2c(cc1/C=C/[N+](=O)[O-])OCO2,"inconclusive: 17.8 µM [inhibitor, partial curve, poor fit]",–
NC(=O)N/N=C/C=C/c1ccccc1,"inconclusive: 0.0891 µM [activator, full curve, poor fit]",–
